These are yes or no findings as the source states them, for the method shown. For some of these results: Binding calls can cover weak binding; strength is not graded here. For some of these results: Sequences can lack the tags named with a protein. One block for each molecule: values may come before it.
How the values were obtained:
[1] = biological target: T1, C-terminal RRM domain of Pla1 (Pla1RRM, residues 352-566), purified (S. pombe) (UniProt Q10295); assay: ITC; competition: Red1_(288-345) titrated into Pla1RRM pre-incubated with a 1.1-fold molar excess of Iss1_(30-76); 25 °C, 20 mM HEPES pH 7.5, 150 mM NaCl, 2 mM BME; both purified
T1 sequence: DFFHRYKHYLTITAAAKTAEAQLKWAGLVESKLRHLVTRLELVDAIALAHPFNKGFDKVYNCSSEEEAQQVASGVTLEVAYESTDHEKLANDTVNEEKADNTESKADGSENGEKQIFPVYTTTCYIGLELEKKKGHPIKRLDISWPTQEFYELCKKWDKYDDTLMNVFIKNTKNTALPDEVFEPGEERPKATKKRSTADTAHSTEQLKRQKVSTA

[2] = biological target: T1, C-terminal RRM domain of Pla1 (Pla1RRM, residues 352-566), purified (S. pombe); assay: condition: only with Pla1RRM pre-incubated with a 1.1-fold molar excess of Red1_(288-345); ITC; competition: Iss1 titrated into Pla1RRM pre-incubated with a 1.1-fold molar excess of Red1_(288-345); 25 °C, 20 mM HEPES pH 7.5, 150 mM NaCl, 2 mM BME; both purified
[3] = biological target: Msi2 (1-474) fused to the Gal4 DNA-binding domain (S. pombe); assay: two-hybrid; Msi2 fused to the Gal4 DNA-binding domain (pGBKT7), MTREC components fused to the Gal4 activation domain (pGADT7); strain PJ69-4A; growth on -Leu-Trp-His and -Leu-Trp-Ade, 30 °C, 3 days
[4] = biological target: Msi2 fused to the Gal4 DNA binding domain (S. pombe); assay: two-hybrid; Gal4 DNA binding domain (pGBKT7) and activation domain (pGADT7) fusions co-transformed into PJ69-4A; 10-fold serial dilutions on SDC-Leu-Trp, -His (weak) and -Ade (strong), 30 °C, 3 days

Molecule: Iss1 residues 30-76, purified (S. pombe) (domain or fragment)
binding [1]: binds
binding [2]: no binding

B2: Pab2 fused to the Gal4 activation domain (protein, UniProt O14327 1-166)
chain: MSDQDALDTQEKELLEMKERVAEMEAEAAKLRAMQEQLDNETEALRNDKESIDAQSVYVGNVDYSVTPEELQSHFASCGSVNRVTILCDKFTGHPKGFAYIEFSEPSLVPNALLLNGSMLHERPLKVTPKRTNVPGMSRGRGRGRGRGRGRGRGGYRGRARGFAPY
binding [4]: binds

B3: Ars2 (1-609) fused to the Gal4 activation domain (protein, UniProt O94326 1-609)
chain: MSEVHQESEVEYSRWKRERSPERSQRRSQSPPGEQSAYHRERSPLRKRGNYYDDRTRASGPYPTFTKPLIDPYTQTNAVSYERFIRWYSKENHISATTEDLYNSLHGTYNNYKQDLYARTARSFVESHCDEAWFEDSYWVDESQGRVLEVSENEKSYRRALYDKFMDRLDAGYYDDFQLPTAEDVIEKPSIPDNDTDDSILPSNDPQLSKWNQDSRNDAMENTLLVSHVLPNISVAQIHNALDGISFVQHFSLSTINLIKNDERSLWVHFKAGTNMDGAKEAVDGIQLDSNFTIESENPKIPTHTHPIPIFEIASSEQTCKNLLEKLIRFIDRASTKYSLPNDAAQRIEDRLKTHASMKDDDDKPTNFHDIRLSDLYAEYLRQVATFDFWTSKEYESLIALLQDSPAGYSRKKFNPSKEVGQEENIWLSDLENNFACLLEPENVDIKAKGALPVEDFINNELDSVIMKEDEQKYRCHVGTCAKLFLGPEFVRKHINKKHKDWLDHIKKVAICLYGYVLDPCRAMDPKVVSTSYVSLQILNKPYVGFRNINANYTFPTTSYSRRNDEEITSGASSQKSYSRQEPMIHRREFYRTYQDLDAPNQEVPELDY
binding [3]: no binding

B4: Mmi1 fused to the Gal4 activation domain (protein, UniProt O74958 1-488)
chain: MSNTNFSTSRSSKSIPELPNLEALRSLWPPPSLNESGDTRSVWTTHTGEPVASSVLSTSGSNNFSSPLKRPAPESHDAPIGRRLMVDDPRLIKHGKYDFSRHCTDYGHSYEWPYFRSLRRESMLYHTSGSYPESQPPYSSYSTDAPHYYHAGSESSAYYDSRSRLHGIQPPPKRRTLSPPPRRLADPVVVGSSRYVEEEVYRRPPYTLASEVPSSASAYQAGYSSYPVRSSPQLSHEDTRHGIASSGSTRYPFVPANTRASHSPSLLEPYAHSLPSSVAPVGAYPEKSSYLLSNSSNDSASRKEKPKARASTPPPLNFSRASEHRNEKGERISMINPRVVLDENGISHRSRYFIMLCDNETAIAHAKKTSIWAVKKDSSKRISDAYKKASVYFIFVAQQTYNALGYAQVVSDLNSTELPFWSDSSHAGGVRIKWIKTCNLFSAEISEIVSHMDHGSEARDGMEMMYDEGSRLCTLINYAIMKRIGRDR
binding [4]: binds

Second part, the molecule after the results:

binding [3]: no binding
B1: Red1 (1-712) fused to the Gal4 activation domain (protein, UniProt Q9UTR8 1-712)
chain: MSRSINLDELRKKALESKKKNEEDESNDSDKEDGEISEDDPVIDQSNSVPPMKVPTFPEQIPQLPPFDRFPGTNANFFPFGAPFMLPPALMFGPNTVPFFPQTASSNKTFSKRKRSSENSFNNRNKAKSSETSDSSNTSQSFKENRALKDTATSRPLALSSDTSYQKSEKAKSEKSPFLSTSKNSDANYSKTTNQKEAEKAVSQLFEVGVRFNDFIAEGIEPSVVHTLFLKLGLDSSSASSQGSLTLSADKAARSAKLRKIDSNLSDTHILPGDNGTPTVLPERKNLISLPLLKQDDWLSSSKPFGSSTPNVVIEFDSDDDGDDFSNSKIEQSNLEKPPSNSENGLTMSRSDYLALLRNKEEEIRRMTKLILRLESNKKPYRSPTSAADMKLPSVPVAAVDNKSKTHLDTFEKVVDLSSKADFVEAGPSISSSGASSSAATTNSDTTEQILEAPWLRKTEQIAVVHEEHPAQIKKSEIDILNNLIEKEEGELTKYQTLVKSKTEILTQLYTRKKQLLEQQGKGNVACLPKESDLSMDSITEVSAQADENSSQILSSKTSNAPNGTTETDFEDKVPLVDYISPFYRFKSYRFNQQFVERVPLKYRSLTYSNKIEPMKVFCKYETTGGVCNDDHCEASHFRDIKMTDDEIIQDLSRYIEGNDEIEKESYKSGLDIVMKNTDENTDFVDVATRIVEYHNLWKSERMTIPVAKVSI

binding [3]: no binding
B5: Pla1 (1-566) fused to the Gal4 activation domain (protein, UniProt Q10295 1-566)
chain: MTTKQWGITPPISTAPATEQENALNTALINELKNQNLFESPAESEKRVKVLDELQQITTEFVKKVSLAKHMNEKMANEAGGKIFTYGSYRLGVYGPGSDIDTLVVVPKHVSRDNFFQDLEPMLREREEVTDLAAVPDAYVPIIKFKFLGISIDLIFARLSVPRVPRDLELSDNNLLKGVEERCVLSLNGTRVTDQILQLVPNRAVFKHALRAIKFWAQRRAIYANVVGFPGGVAWAMMVARICQLYPNAVSSVIVAKFFRILHQWNWPQPILLKPIEDGPLQVRIWNPKLYPSDKAHRMPIITPAYPSMCATHNITLSTQTIILREMVRAGEIADQIMVKALPWSALFQKHDFFHRYKHYLTITAAAKTAEAQLKWAGLVESKLRHLVTRLELVDAIALAHPFNKGFDKVYNCSSEEEAQQVASGVTLEVAYESTDHEKLANDTVNEEKADNTESKADGSENGEKQIFPVYTTTCYIGLELEKKKGHPIKRLDISWPTQEFYELCKKWDKYDDTLMNVFIKNTKNTALPDEVFEPGEERPKATKKRSTADTAHSTEQLKRQKVSTA
